Counter-ions that a name gives are not always drawn. ± gives the standard deviation of the averaged measurements. Some of the results follow. This data set is noisy: repeats of one test often differ as much as different tests do.
tested on: A549; assay: surface PD-L1 immunofluorescence intensity relative to IFN-gamma-only control (ratio); higher = more PD-L1 expression; conditions: 10 µM; exposure time 24 h; IFN-gamma 100 ng/mL

Row | SMILES | surface PD-L1 immunofluorescence intensity
1 | Clc1cnc(Oc2ccc(Oc3ncc(Cl)cc3Cl)cc2)c(Cl)c1 | 1.03
2 | C=C1[C@@H]2CC[C@H]3[C@]4(C)C[C@H](O[C@@H]5O[C@H](CO)[C@@H](OS(=O)(=O)O)[C@H](OS(=O)(=O)O)[C@H]5OC(=O)CC(C)C)C[C@@H](C(=O)O)[C@H]4CC[C@]3(C2)[C@@H]1O [Atractyloside potassium salt] | 0.943
3 | CC(Cc1ccc(O)cc1)NCC(O)c1cc(O)cc(O)c1 (stereo not given) [Fenoterol hydrobromide] | 0.877
4 | Cn1cnc(CCN)c1 [N _-Methylhistamine dihydrochloride] | 1.01
5 | C1CCc2nnnn2CC1 [Pentylenetetrazole] | 0.944 ± 0.07
6 | C=CC[C@]1(O)CC[C@H]2[C@@H]3CCC4=CC(=O)CCC4=C3C=C[C@@]21C [Altrenogest] | 0.979
7 | C[C@]12CC[C@@H](O)C[C@@H]1CC[C@@H]1[C@@H]2CC[C@]2(C)C(=O)CC[C@@H]12 [Androsterone] | 1.03
8 | CNCC(O)c1ccc(O)cc1 (racemic) [(+,-)-Synephrine] | 1.03
9 | CN(C)CCc1ccc(O)cc1 [Hordenine] | 1.08
10 | CC(=O)[C@H]1CC[C@H]2[C@@H]3CC[C@H]4C[C@](C)(O)CC[C@]4(C)[C@H]3CC[C@]12C [Ganaxolone] | 0.935
11 | COc1ccc(N(C(=O)Oc2c(C)cccc2C)c2ccnc(Nc3ccc(N4CCN(C)CC4)cc3)n2)c(OC)c1 | 1.06
12 | C#C[C@]1(O)CC[C@H]2[C@@H]3CCC4=CC(=O)CCC4=C3C=C[C@@]21CC [Gestrinone] | 0.953
13 | CN1[C@@H]2C[C@@H](OC(=O)[C@H](CO)c3ccccc3)C[C@H]1[C@@H]1O[C@@H]12 [Scopolamine hydrochloride] | 1.04
14 | CN1[C@@H]2C[C@@H](OC(=O)[C@H](CO)c3ccccc3)C[C@H]1[C@@H]1O[C@@H]12 [Scopolamine HBr] | 0.879
15 | CN1[C@@H]2C[C@@H](OC(=O)[C@H](CO)c3ccccc3)C[C@H]1[C@@H]1O[C@@H]12 [Scopolamine hydrobromide] | 0.986
16 | O=C(O)C1=CCCN(CCOC(c2ccc(C(F)(F)F)cc2)c2ccc(C(F)(F)F)cc2)C1 [CI 966 hydrochloride] | 0.985
17 | CC(C)(O)[C@H]1O[C@H]2CC[C@@]3(C)[C@@](O)(CC[C@H]4Cc5c([nH]c6ccccc56)[C@@]43C)C2=CC1=O [Paxilline] | 1.088 ± 0.0039
18 | O[C@H]1[C@H](O)[C@@H](O)CN2CC[C@H](O)[C@H]12 [Castanospermine] | 1.06
19 | NCC(CC(=O)O)c1ccc(Cl)cc1 (racemic) [Baclofen (R,S)] | 0.87
20 | N[C@@H]1C[C@H]1c1ccccc1 [Tranylcypromine hydrochloride] | 1.012 ± 0.0022
21 | O=C1CC[C@@]2(O)[C@H]3Cc4ccc(O)c5c4[C@@]2(CCN3CC2CC2)[C@H]1O5 [Naltrexone hydrochloride dihydrate] | 0.957
22 | CN[C@@H]1[C@@H](O)[C@@H](O[C@@H]2[C@@H](O)[C@H](O[C@H]3O[C@H](CN)CC[C@H]3N)[C@@H](N)C[C@H]2N)OC[C@]1(C)O.CN[C@@H]1[C@@H](O)[C@@H](O[C@@H]2[C@@H](O)[C@H](O[C@H]3O[C@H]([C@@H](C)N)CC[C@H]3N)[C@@H](N)C[C@H]2N)OC[C@]1(C)O.CN[C@@H]1[C@@H](O)[C@@H](O[C@@H]2[C@@H](O)[C@H](O[C@H]3O[C@H]([C@@H](C)NC)CC[C@H]3N)[C@@H](N)C[C@H]2N)OC[C@]1(C)O [Gentamicine sulfate] | 0.971
23 | Cn1c(CCCC(=O)O)nc2cc(N(CCCl)CCCl)ccc21 [Bendamustine HCL] | 1.02

Row | SMILES | surface PD-L1 immunofluorescence intensity
24 | Oc1ccc2c3c1O[C@H]1c4[nH]c5ccccc5c4C[C@@]4(O)[C@@H](C2)N(CC2CC2)CC[C@]314 [Naltrindole hydrochloride] | 1.17
25 | Cc1cc(C)cc(C(=O)OC2C[C@H]3CC[C@@H](C2)N3C)c1 (stereo not given in full) [Tropanyl-3,5-dimethylbenzoate] | 0.997
26 | CC(NC(C)(C)C)C(=O)c1cccc(Cl)c1 (stereo not given) [Bupropion hydrochloride] | 0.837
27 | CC1(C)[C@H](C(=O)O[C@H](C#N)c2cccc(Oc3ccccc3)c2)[C@@H]1C=C(Br)Br [Deltamethrin] | 0.905
28 | CN1CCC2(C)c3cc(O)ccc3N(C)C12 (single isomer, unassigned; (-)) [(-)-Eseroline fumarate salt] | 0.993
29 | Cc1onc(O)c1CC(N)C(=O)O (racemic) | 1.12
30 | CC(C)(C)c1cc(C=C(C#N)C#N)cc(Br)c1O | 1.002 ± 0.0012
31 | NC[C@H](CC(=O)O)c1ccc(Cl)cc1 [(R)-baclofen] | 1.01
32 | O=c1c2ccccc2[se]n1-c1ccccc1 [Ebselen] | 1.038 ± 0.0046
33 | CCCN(CCC)C1Cc2cc(OC)c(OC)cc2C1 | 0.945
34 | CN1CCCCC1Cn1cc(C(=O)c2cc([N+](=O)[O-])ccc2I)c2ccccc21 (stereo not given) | 1.05
35 | NCC(O)c1ccc(O)cc1 (stereo not given) [Octopamine hydrochloride] | 0.995
36 | O=c1ccc2cc(O[C@@H]3O[C@H](CO)[C@@H](O)[C@H](O)[C@H]3O)c(O)cc2o1 [Aesculin (Esculin)] | 0.954
37 | O=C(NCC1CCOCC1)c1cnc(Nc2ccc(Cl)cc2Cl)nc1C(F)(F)F | 0.972
38 | COC(=O)[C@@H](N)CCCNC(=N)N[N+](=O)[O-] [L-NAME hydrochloride] | 1.02
39 | COC(=O)[C@@H](N)CCCNC(=N)N[N+](=O)[O-] | 0.987
40 | O=C1Nc2ccccc2C2(CCN(CCc3ccc(C(F)(F)F)cc3)CC2)O1 | 0.988
41 | CC(N)Cc1cnc[nH]1 (stereo not given) | 1.05
42 | O=C1C=CC[C@@H]2[C@H]3CCCN4CCC[C@@H](CN12)[C@@H]34 [Sophocarpine] | 1.19
43 | S=C=Nc1cccc(C2(N3CCCCC3)CCCCC2)c1 [Metaphit] | 1
44 | CC(=O)O[C@H]1C[C@@H]2CC[C@@H]3[C@H](CC[C@@]4(C)[C@H]3C[C@H]([N+]3(C)CCCCC3)[C@@H]4OC(C)=O)[C@@]2(C)C[C@@H]1[N+]1(C)CCCCC1 [Pancuronium bromide] | 0.985
45 | CC(=O)O[C@H]1C[C@@H]2CC[C@@H]3[C@H](CC[C@@]4(C)[C@H]3C[C@H]([N+]3(C)CCCCC3)[C@@H]4OC(C)=O)[C@@]2(C)C[C@@H]1[N+]1(C)CCCCC1 [Pancuronium (Pavulon)] | 1.04

3 entries from above, with tabs.
Row	SMILES	surface PD-L1 immunofluorescence intensity
18	O[C@H]1[C@H](O)[C@@H](O)CN2CC[C@H](O)[C@H]12 [Castanospermine]	1.06
24	Oc1ccc2c3c1O[C@H]1c4[nH]c5ccccc5c4C[C@@]4(O)[C@@H](C2)N(CC2CC2)CC[C@]314 [Naltrindole hydrochloride]	1.17
40	O=C1Nc2ccccc2C2(CCN(CCc3ccc(C(F)(F)F)cc3)CC2)O1	0.988
